Some entries share one result that the patent states for a list of compounds.
Key:
[1] = system: Glomerella lagenarium (Colletotrichum lagenarium); experiment: Glomerella lagenarium (Colletotrichum lagenarium) / liquid culture (anthracnose); type: cell-based; conditions: 20 ppm, growth inhibition measured photometrically 3-4 days after application, compared to untreated control
[2] = system: Monographella nivalis (Microdochium nivale); experiment: Monographella nivalis (Microdochium nivale) / liquid culture (foot rot cereals); type: cell-based; conditions: 20 ppm, growth inhibition determined photometrically 4-5 days after application, compared to untreated control
Pyrenophora teres = Pyrenophora teres / barley / leaf disc preventative (net blotch); type: in vivo; conditions: 200 ppm, barley leaf segments cv. Hasso, inoculated 2 days after application, assessed 5-7 days after application, compared to untreated control

SMILES | control of Glomerella lagenarium [1] | control of Monographella nivalis [2] | control of Pyrenophora teres (Pyrenophora teres)
CC1(C)CCC1NC(=O)c1nc(Nc2cc(F)cc(F)c2)cc2cc[nH]c12 (centres unmarked) [Compound P-1, 5-(3,5-difluoroanilino)-N-(2,2-dimethylcyclobutyl)-1H-pyrrolo[2,3-c]pyridine-7-carboxamide] | at least 80% | at least 80% | –
CC1(C)CCC1NC(=O)c1nc(Nc2cnsc2)cc2cn[nH]c12 (centres unmarked) [Compound P-5, N-(2,2-dimethylcyclobutyl)-5-(isothiazol-4-ylamino)-1H-pyrazolo[3,4-c]pyridine-7-carboxamide] | at least 80% | at least 80% | –
CC1(C)CCC1NC(=O)c1nc(Nc2cc(F)cc(F)c2)cc2cn[nH]c12 (centres unmarked) [Compound P-6, 5-(3,5-difluoroanilino)-N-(2,2-dimethylcyclobutyl)-1H-pyrazolo[3,4-c]pyridine-7-carboxamide] | at least 80% | at least 80% | at least 80%
CC1(C)CCC1NC(=O)c1nc(Nc2ccnc(F)c2)cc2cn[nH]c12 (centres unmarked) [Compound P-7, N-(2,2-dimethylcyclobutyl)-5-[(2-fluoro-4-pyridyl)amino]-1H-pyrazolo[3,4-c]pyridine-7-carboxamide] | at least 80% | at least 80% | –
CC1(C)CCC1NC(=O)c1nc(Nc2cc(F)nc(F)c2)cc2cn[nH]c12 (centres unmarked) [Compound P-8, 5-[(2,6-difluoro-4-pyridyl)amino]-N-(2,2-dimethylcyclobutyl)-1H-pyrazolo[3,4-c]pyridine-7-carboxamide] | at least 80% | at least 80% | at least 80%
O=C(NC1CCC12CCCC2)c1nc(Nc2cc(F)nc(F)c2)cc2cn[nH]c12 (centres unmarked) [Compound P-19, 5-[(2,6-difluoro-4-pyridyl)amino]-N-spiro[3.4]octan-3-yl-1H-pyrazolo[3,4-c]pyridine-7-carboxamide] | at least 80% | at least 80% | –

Reference: US20220227763A1, “MICROBIOCIDAL DERIVATIVES” (SYNGENTA CROP PROTECTION AG, priority 2019, published 2022)
